Laboratory results reported in patent CN114316048A.
Results are given in words; binding and its absence hold for the method and conditions named. Some results given as binding are weak or reduced against the parent protein; the word gives no strength.

T1: 可溶性B7-H5蛋白标准品(R&D Systems) (human) (UniProt Q9H7M9)
T1 sequence (looked up): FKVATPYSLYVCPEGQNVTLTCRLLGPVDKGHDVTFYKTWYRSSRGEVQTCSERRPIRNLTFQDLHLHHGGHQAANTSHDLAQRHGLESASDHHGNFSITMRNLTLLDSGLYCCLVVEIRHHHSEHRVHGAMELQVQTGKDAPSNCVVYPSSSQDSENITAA

B1: 抗人B7-H5单克隆抗体B7-H5-2E5 (antibody, V domains shown)
VH: DVKLQESGPGLVKPSQSLSLTCTVTGYSIASDYTWNWIRQFPGNKLEWMGYIDYSGATFYNPSLKSRISIIRDTSKNQFFLQLNSVTTGDTATYYCTRGFYYYGSDYWGQGTTLTVSS
VL: DVLMTQTPLSLPVSLGDQASISCRSSQSIVHNNGNTYLEWYLQKPGQSPKLLIYKVSNRFSGVPDRFSGSGSGTDFTLKINRVEAEDLGVYYCFQGSHVPSTFGGGTKLEIK
B2: 抗人B7-H5单克隆抗体B7-H5-7B10 (antibody, V domains shown)
VH: EVQLKQSGPGLVAPSQSLSITCTVSGFSLTNHGVQWVRQSPGKGLEWLGVIWGDGNRNYHSALMSRLSINKDNSKSQVFLKLNRLQTDDTATYFCAKERRLGYYGEYDVMDYWGQGTSVTVSS
VL: DIVMTQSHKFMSTSVGDRVTITCKASQGVGTAVAWYQQKPGQSPKLLIYWASTRHTGVPDRFTGSGSGTDFTLTIGNVQSEDLADYFCQQYSSSPFTFGSGTKLEIK

Key:
[1] = target: T1, 可溶性B7-H5蛋白标准品(R&D Systems) (human); experiment: sandwich ELISA, B7-H5-2E5 coated at 1 ug/ml as capture, soluble B7-H5 standard diluted from 2 ng/ml, OD450
[2] = target: T1, 可溶性B7-H5蛋白标准品(R&D Systems) (human); experiment: sandwich ELISA, biotinylated B7-H5-7B10 as detection of soluble B7-H5 standard captured by B7-H5-2E5, HRP/TMB, OD450

Row | Binder | binding [1] | binding [2]
1 | B1 | binds | –
2 | B2 | – | binds
